Laboratory results published in publication PMC12374962.
No constants are given. Whether binding was seen depends on the method and setting. In cells and extracts the contact can be indirect. Binding can be weak; no strength is given.

Sequences of proteins named here, by UniProt entry; tags and fusion partners are left off. A change or cut given only in a name is not applied to a line headed by its entry.
UniProt P49023: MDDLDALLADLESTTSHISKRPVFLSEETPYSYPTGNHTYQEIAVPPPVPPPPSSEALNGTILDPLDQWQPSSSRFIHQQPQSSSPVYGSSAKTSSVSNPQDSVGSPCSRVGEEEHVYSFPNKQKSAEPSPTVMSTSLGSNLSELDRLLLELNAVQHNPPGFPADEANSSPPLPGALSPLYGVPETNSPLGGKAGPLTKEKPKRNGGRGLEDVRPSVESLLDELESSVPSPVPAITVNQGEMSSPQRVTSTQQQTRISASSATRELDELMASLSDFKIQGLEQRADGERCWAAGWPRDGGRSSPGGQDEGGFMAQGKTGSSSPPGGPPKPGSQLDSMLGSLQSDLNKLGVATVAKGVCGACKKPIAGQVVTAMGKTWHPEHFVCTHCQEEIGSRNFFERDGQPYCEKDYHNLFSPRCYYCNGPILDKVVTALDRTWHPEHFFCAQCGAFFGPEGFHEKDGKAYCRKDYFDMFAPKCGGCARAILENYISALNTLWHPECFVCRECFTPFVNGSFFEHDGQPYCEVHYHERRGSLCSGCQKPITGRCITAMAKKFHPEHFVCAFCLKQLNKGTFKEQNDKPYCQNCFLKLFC
UniProt P07339: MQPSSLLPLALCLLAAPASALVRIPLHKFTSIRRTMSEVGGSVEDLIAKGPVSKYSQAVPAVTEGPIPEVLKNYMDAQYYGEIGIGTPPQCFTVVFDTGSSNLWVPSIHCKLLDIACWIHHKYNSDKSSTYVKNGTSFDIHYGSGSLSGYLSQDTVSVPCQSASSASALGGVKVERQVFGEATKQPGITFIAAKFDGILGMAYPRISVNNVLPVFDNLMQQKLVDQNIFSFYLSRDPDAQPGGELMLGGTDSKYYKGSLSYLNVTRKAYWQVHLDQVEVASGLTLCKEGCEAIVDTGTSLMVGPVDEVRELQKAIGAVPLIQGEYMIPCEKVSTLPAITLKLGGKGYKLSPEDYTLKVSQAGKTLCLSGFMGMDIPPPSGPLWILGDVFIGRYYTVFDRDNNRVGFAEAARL

Legend:
[1] = molecular target: paxillin phosphorylated at tyrosine 118 (human (endogenous in LoVo and HCT116)) (UniProt P49023); experiment: co-IP; endogenous proteins in PDC lysates (IP lysis buffer with protease and phosphatase inhibitors); supernatant incubated with anti-paxillin or anti-Y118-paxillin antibody overnight at 4 °C, protein A/G agarose beads 2 h at 4 °C, normal mouse immunoglobulin as negative control, detection by western blot
[2] = molecular target: paxillin (human (endogenous in LoVo and HCT116)) (UniProt P49023); experiment: as above

cathepsin D (from UniProt P07339) (enzyme)
binding [1]: binds
binding [2]: binds
